About 210 (0.4%) of roughly 52,000 sequences were called active.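 The calls were made as follows: active = gene whose silencing raises cell survival under the drug, median off-target-corrected z-score across its silencing RNAs 2 or more; inactive = the rest.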 The list shows a part of the results.
Assay: Resistance to Poly (ADP-Ribose) Polymerase inhibitor: Gene Identification via Genome-wide siRNA Screen
Details: mouse BRCA2 R2336H ES cells, olaparib, CellTiter-Glo viability; active compounds read high
Outline: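 Mouse BRCA2 R2336H ES cells were reverse-transfected with siRNA (20 nM final), treated at 48 h with 500 nM olaparib, and read by CellTiter-Glo after 72 h. Scores: MAD-based z per siRNA, median per gene, seed off-target correction.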

Sequence	z-score
GGCAGUUUCUUCUUCCAAATT against Hist1h1a	inactive: -1.74
GGCUUCACAAGCCAAAAGUTT against Gabrg2	inactive: 0.724
GGUCUCAAUGCCCAUCAUATT against Sqle	inactive: -1.96
GGCCACAAACAACCUAACATT against Nme6	inactive: 0.281
GGAGAAUCCGAGGAUAACUTT against Ereg	inactive: -1.34
CCAAUGUGCGAGCAAAGAUTT against Arid5a	inactive: -0.0855
GGCCGACAUAAAGAAAUCATT against Nol7	inactive: 0.781
GGCCUUGAUCCAAAAGUGGTT against Cyp21a1	inactive: -0.0284
GGCGGAGUUAAAUUUUCUGTT against Pcdhgb6	inactive: 1.47
GGGACCUAUUCUGUCACUGTT against ICRFP703B1614Q5.6	inactive: -0.177
GGUGUAAAUGAGCCUUUUUTT against E230026N22Rik	inactive: -2.89
GGUUGCUUUUCUCUUUGAATT against 4921536K21Rik	inactive: -0.945
GUGGCUUCAGAUCUCUGAATT against Krtap13	inactive: -0.799
GCUUCUGAAUUCCUACUUGTT against Dtymk	inactive: 0.262
GCUAUGGCCUUCGGUACAUTT against LOC280621	inactive: 1.07
GGGCCAUGCCAACAUAGUATT against Gabpb1	inactive: 0.252
CCUGACCAAGCUUGCUUGGTT against Taz	inactive: 1.25
GGUCACCACCAUAGCAAGGTT against 4930583C14Rik	inactive: -0.695
GGAACAGGUAGUUUGGGAATT against Slco6b1	inactive: -0.872
GGGUAAAGAGCUUCUUCCATT against Ahrr	inactive: -1.01
GGACGAUUCUUUUCUCCAGTT against Surf1	inactive: 0.882
GGUUAAGGAGAAAUGUGAUTT against A630029F06	inactive: -0.475
GGGACAUUAAGUGAUUUGUTT against Fbxo30	inactive: -0.462
GCUUUCAAGUGGUUAUGAATT against 4933414E04Rik	inactive: 0.836
GGCAUAACGAUGGGAAACATT against Insig2	inactive: -1.65
GGUGUGGAAGUCAGUUUAATT against Serpinb3c	inactive: 0.713

Sequence	z-score
CGGUCCUCAGAACAUAUACTT against D11Bwg0434e	inactive: -0.743
GGAGAAACCUCAGCUAAAGTT against Artn	inactive: 2.19
CGACAAUGCCAUCGAUUCGTT against Sdc3	inactive: 1.85
GGUAUGGAUGCUUGAGAAATT against 2700091N06Rik	inactive: -0.493
CGAAUCUGGGAUUUAUCCATT against Tparl	inactive: 0.623
GGCCGAAUUAAUUUCUCUGTT against Cd7	inactive: 1.17
GCACUGAACAGUUGAGAAATT against Zadh2	inactive: 0.311
GUUGAACAAUCUUGUCCUGTT against Rps25	inactive: -0.991
GGAAAGGAAAAAAAAGGAATT against Dncic2	inactive: -0.101
GGUGACAAACUUGAAGACCTT against C330016H24Rik	inactive: 0.0625
GGAAGUAUUGAUCAAGUUGTT against 2810423E13Rik	inactive: 0.809
GCUCAGAGGUGUAUUCAUUTT against C330012H03Rik	inactive: -1.64
GCUGGCCAAACUUGACAGUTT against BC037006	inactive: -0.976
GCGGUUCGCAUUUGUGAUGTT against Eftud1	inactive: -0.32
GGCAAUUUUCAGAGAAGUUTT against Fosb	inactive: -0.778
GGACCGUUUACAACUUCUATT against Spg4	inactive: -0.181
CCUAACUUCAUCCUGUCAUTT against Tex261	inactive: -0.781
GGUACUGAGGUGAGCCUCUTT against Myocd	inactive: -1.48
CCCAAAUUGAUCCUAGCCUTT against Prkar1b	inactive: 0.519
CGUGCUUAAGAGUCCACUATT against H3f3a	inactive: -1.43
GGAAAACUAGACAGAAAAUTT against D030041N04Rik	inactive: -0.326
CGGAUUGUAAAGAACUGCATT against Sfrp1	inactive: -0.06
GGAUUUGAGCCUUGUUCCATT against 1200016C12Rik	inactive: -1.68
GCUUUGUUUUAGGACCUUUTT against Rdh1	inactive: -1.13
GCAACUCAACCUCAACCAUTT against 1810049O03Rik	inactive: 0.466
GGAAUGUGGAUAAAAACGATT against Ncam1	inactive: 0.679

Sequence	z-score
GCAUCUCUCUAAUAGCCUUTT against D13Wsu177e	inactive: -0.341
GGCUUCAGACAAGCAAUAATT against 1110008K04Rik	inactive: -0.972
GGAAGAGAGUCUGCCUGGUTT against BC016076	inactive: -1.92
CCCAGACCAAUUCAUCUUATT against Ifngr2	inactive: -0.0596
GGACUACAUGUUUGAAACCTT against Ugt2a1	inactive: -1.25
GCGGGCAAUGCCUUAAAAGTT against D16Ertd607e	inactive: 0.194
GCGCAUGAGUGCAAGGAUUTT against Prdm16	inactive: 1.32
GGAUGUUGAACAAAAGAAGTT against Abce1	inactive: -0.372
CCCAUUCCUAGGAUUAUCGTT against Arf6	inactive: 0.238
GGCAUGUGGUUGAAGGCCUTT against Fank1	inactive: 1.47
GGUCUGAAAGGCAUGAUACTT against Adam4	inactive: -0.168
GGAAAGAUUUCGAACAAUCTT against Rab1	inactive: -0.242
GGAACGUAUGAAGUUAAACTT against Cd80	inactive: 1.58
GCUGGUUUUCAUCUCUAAATT against Slc5a5	inactive: 0.566
GGGAUUCAUCACUGAAAAGTT against Mell1	inactive: -0.918
GGAUUACCACAGAGCUUCATT against Rhox3	inactive: -1.49
GGAUGAAAUCUCCAAGAAATT against Btg3	inactive: -0.101
GCCAAGAGGUUAAAAGACUTT against Rabep2	inactive: 0.286
GCUGAUCAAUAACUAUGAUTT against Ezh1	inactive: 0.925
GGAUUGGGUUACAUACAGATT against Abpe	inactive: 0.428
GGUGUCCAUCUACUAUGGCTT against Prrxl1	inactive: 0.2
GGGCAUUUGUGAAGUAUAUTT against 4732429I09Rik	inactive: -2.69
CGUCUGUCUGUAUGAAAUUTT against 2810439F02Rik	inactive: -1.11
GGAGGAUCAAAAACUUGUUTT against 4930444A02Rik	inactive: 1.7
CCGAUAAAAGAUGACCUCATT against D17H6S56E-5	inactive: -1.63
GGAAAGGAAAGCUAUGACATT against Crhr2	inactive: 1.71

5 entries picked at random from the list so far:
Sequence	z-score
GGCUUCAGACAAGCAAUAATT against 1110008K04Rik	inactive: -0.972
GGACUACAUGUUUGAAACCTT against Ugt2a1	inactive: -1.25
GGAUUACCACAGAGCUUCATT against Rhox3	inactive: -1.49
GGCAUGUGGUUGAAGGCCUTT against Fank1	inactive: 1.47
GGAUUGGGUUACAUACAGATT against Abpe	inactive: 0.428

Remaining list, next part

Sequence	z-score
GGGCUCUAGAGUAAAAUAATT against H3f3b	inactive: -2.55
CCUCUUUCAUAACUGAUGUTT against 9830169C18Rik	inactive: -1.73
GGAAAAGUGGACAAAAUUGTT against Ncoa6	inactive: 1.57
GGAACUUGAGUUGCUACAGTT against Il12rb1	inactive: -0.805
GCAGAGUGCUCGUAGAGUGTT against D930036F22Rik	inactive: -1.27
GGACUCGAACUCAGAACCATT against Gdf15	inactive: -0.554
CCGCUUGGCUAGCUUUAUATT against 2810422M04Rik	inactive: -0.16
GAAUGUUUACAUGCCACACTT against C330008L01Rik	inactive: 0.632
GGCAGAAACUAAGAAUGAATT against Mx1	inactive: -0.613
CCACAAGCUAAUACAUGCUTT against Ubadc1	inactive: 0.121
GCCAAUAAACGAAACUCUGTT against BC020184	inactive: -0.666
GCAAGAUCCGAUUUCUGAUTT against Snrpd3	inactive: -2.48
CGACGUAUCCGUUCUAUAATT against Eif2s1	inactive: -2
GGUCAUUAUACCAUUGGCATT against Tuba7	inactive: 0.861
GGUUGUCACCAUCAGUCCUTT against V1ri6	inactive: 0.462
GGUGGUGAAUAUGAUGAUATT against AW550801	inactive: -0.482
CGAGCGACUGAAAAGAUAATT against Atad3a	inactive: -0.562
GGGUGAUGCAGAUCAUCGUTT against Prkcq	inactive: -0.275
CGAGUGAACGUGAAAAAUGTT against Myl2	inactive: 0.324
GCCACGUCUGAACACUUCATT against Vamp8	inactive: -1.05
GCUAAUCAGGUAGUAAUUCTT against Usp9y	inactive: -0.966
GGAGAUUAGUUGUGACUGATT against Clecsf5	inactive: -0.073
GCCUAUUCGGAUUAUUGAUTT against Gab1	inactive: 0.661
GGCCUUUGCUGUGAUGCUGTT against Ormdl3	inactive: -0.115
GGCUGGAUGAACUUGCUCATT against B230365F16Rik	inactive: 0.704
